Assay results: paper PMC5700692
No constants are given. Whether binding was seen depends on the method and setting. In cells and extracts the contact can be indirect. A result given as binding can be weak or reduced; the word gives no strength. Tags and fused reporters may be left off the sequences shown.

Molecular target: T1, Arabidopsis thaliana mitochondrial pyruvate carrier 1 (AtMPC1), Flag-tagged (Arabidopsis thaliana) (UniProt Q949R9)
T1 sequence: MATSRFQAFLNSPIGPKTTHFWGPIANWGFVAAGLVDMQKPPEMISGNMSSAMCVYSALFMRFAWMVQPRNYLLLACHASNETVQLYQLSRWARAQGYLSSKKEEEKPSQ
Assay: co-IP; MPC1-Flag and NRGA1-MYC co-expressed in tobacco (N. benthamiana) leaves; extract in 50 mM Tris-HCl pH 8.0, 150 mM NaCl, 1% Triton X-100; precipitated with anti-Flag antibody and protein A agarose, 4 °C; immunoblot with anti-MYC

Negative Regulator of Guard cell ABA signaling 1 (NRGA1), MYC-tagged (Arabidopsis thaliana)
binding: binds
